The target in this assay is c-MYC protein (human) (UniProt P01106). The assay is described as follows: co-IP; c-MYC immunoprecipitated from IOMM-Lee and CH157 meningioma cells; USP44 detected in the precipitate.

By UniProt entry, the sequences of proteins in these tests, tags left out.
UniProt P01106: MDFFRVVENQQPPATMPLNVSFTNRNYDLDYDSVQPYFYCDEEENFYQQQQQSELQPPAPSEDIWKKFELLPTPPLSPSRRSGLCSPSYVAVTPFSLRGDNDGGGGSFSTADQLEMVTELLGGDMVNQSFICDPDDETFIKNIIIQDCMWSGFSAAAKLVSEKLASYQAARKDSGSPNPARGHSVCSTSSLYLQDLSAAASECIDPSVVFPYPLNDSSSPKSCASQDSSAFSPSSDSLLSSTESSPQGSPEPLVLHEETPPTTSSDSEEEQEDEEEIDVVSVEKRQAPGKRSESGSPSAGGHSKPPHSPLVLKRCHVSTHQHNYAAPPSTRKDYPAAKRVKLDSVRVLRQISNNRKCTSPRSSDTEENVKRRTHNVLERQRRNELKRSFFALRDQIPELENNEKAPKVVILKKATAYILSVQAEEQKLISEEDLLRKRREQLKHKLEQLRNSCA

Among the data in paper PMC11195615 are binding values, retold here.

Results are given in words; binding and its absence hold for the method and conditions named. In cells and extracts the contact can be indirect. Some entries that bind do so weakly or less than the wild type.

B1: ubiquitin-specific peptidase 44 (USP44) (enzyme, UniProt Q9H0E7 1-712)
chain: MLAMDTCKHVGQLQLAQDHSSLNPQKWHCVDCNTTESIWACLSCSHVACGRYIEEHALKHFQESSHPVALEVNEMYVFCYLCDDYVLNDNTTGDLKLLRRTLSAIKSQNYHCTTRSGRFLRSMGTGDDSYFLHDGAQSLLQSEDQLYTALWHRRRILMGKIFRTWFEQSPIGRKKQEEPFQEKIVVKREVKKRRQELEYQVKAELESMPPRKSLRLQGLAQSTIIEIVSVQVPAQTPASPAKDKVLSTSENEISQKVSDSSVKRRPIVTPGVTGLRNLGNTCYMNSVLQVLSHLLIFRQCFLKLDLNQWLAMTASEKTRSCKHPPVTDTVVYQMNECQEKDTGFVCSRQSSLSSGLSGGASKGRKMELIQPKEPTSQYISLCHELHTLFQVMWSGKWALVSPFAMLHSVWRLIPAFRGYAQQDAQEFLCELLDKIQRELETTGTSLPALIPTSQRKLIKQVLNVVNNIFHGQLLSQVTCLACDNKSNTIEPFWDLSLEFPERYQCSGKDIASQPCLVTEMLAKFTETEALEGKIYVCDQCNSKRRRFSSKPVVLTEAQKQLMICHLPQVLRLHLKRFRWSGRNNREKIGVHVGFEEILNMEPYCCRETLKSLRPECFIYDLSAVVMHHGKGFGSGHYTAYCYNSEGGFWVHCNDSKLSMCTMDEVCKAQAYILFYTQRVTENGHSKLLPPELLLGSQHPNEDADTSSNEILS
B1: the binding entry is recorded as “binds”.
